Values of other authors, collected in patent US20150239832A1, “ANALOGS AND PRODRUGS OF LOOP DIURETICS, INCLUDING BUMETANIDE, FUROSEMIDE AND PIRETANIDE; COMPOSITIONS AND METHODS OF USE” (Neuro Pro Therapeutics, Inc., priority 2012, published 2015).

Experiments:
rats = conditions: whole animal studies in rats

For `NS(=O)(=O)c1cc(C(=O)O)c(NCc2ccco2)cc1Cl` [furosemide], the “effect on kainic acid status” value (rats) is listed as “blocks kainic acid status” and the “affinity for NKCC1 relative to KCC2” value (NKCC1 over KCC2) is listed as “significantly greater affinity for NKCC1 over KCC2”.
